Results from paper PMC7131911.
Results are given in words; binding and its absence hold for the method and conditions named. In cells and extracts the contact can be indirect. Some entries that bind do so weakly or less than the wild type.

Amino acid sequences for entries named in this document (tags omitted).
UniProt Q9JMA1: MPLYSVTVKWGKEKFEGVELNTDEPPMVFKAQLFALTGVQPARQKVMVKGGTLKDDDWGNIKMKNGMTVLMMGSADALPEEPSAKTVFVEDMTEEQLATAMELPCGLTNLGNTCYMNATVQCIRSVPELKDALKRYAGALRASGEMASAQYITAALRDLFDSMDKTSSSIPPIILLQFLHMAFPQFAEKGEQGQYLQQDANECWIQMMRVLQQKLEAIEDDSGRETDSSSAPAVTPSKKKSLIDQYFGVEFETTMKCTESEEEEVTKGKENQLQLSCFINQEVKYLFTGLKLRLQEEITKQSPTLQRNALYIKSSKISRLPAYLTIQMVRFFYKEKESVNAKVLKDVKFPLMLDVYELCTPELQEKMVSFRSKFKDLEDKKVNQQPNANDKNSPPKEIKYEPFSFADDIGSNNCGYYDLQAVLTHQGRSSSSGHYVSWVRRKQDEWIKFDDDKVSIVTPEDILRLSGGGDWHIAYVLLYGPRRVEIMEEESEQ
UniProt Q08857: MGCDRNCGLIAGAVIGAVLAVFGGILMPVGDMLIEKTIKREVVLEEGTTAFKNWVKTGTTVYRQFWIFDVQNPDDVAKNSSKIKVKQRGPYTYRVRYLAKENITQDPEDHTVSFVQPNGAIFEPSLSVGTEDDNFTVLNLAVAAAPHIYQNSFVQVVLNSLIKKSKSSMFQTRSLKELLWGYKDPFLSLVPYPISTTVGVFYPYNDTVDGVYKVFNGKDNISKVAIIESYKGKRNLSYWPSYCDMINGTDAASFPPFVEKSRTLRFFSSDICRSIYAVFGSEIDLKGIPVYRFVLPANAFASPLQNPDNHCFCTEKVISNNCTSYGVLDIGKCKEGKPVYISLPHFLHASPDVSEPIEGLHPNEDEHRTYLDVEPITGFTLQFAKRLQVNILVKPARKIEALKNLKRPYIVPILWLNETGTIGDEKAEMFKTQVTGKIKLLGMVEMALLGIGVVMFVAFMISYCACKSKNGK

Experiments:
[1] = target: USP14 (mouse (endogenous in RAW264.7)) (UniProt Q9JMA1); test: co-IP; RAW264.7 cell lysates; USP14 or CD36 antibody coupled to Dynabeads, lysate rotated 1-2 h, washed with PBS-T three times, immunoblotted for USP14 and CD36
[2] = target: CD36 (mouse (endogenous in RAW264.7)) (UniProt Q08857); test: as above

binding [1] | binding [2] | Substance
binds |  | CD36 (from UniProt Q08857 1-472) (receptor)
 | binds | USP14 (from UniProt Q9JMA1 1-493) (enzyme)
